# Part of at least one peptide drawing is inferred or uncertain, most often the ends. Residues, ends and D or L forms follow the SMILES beside them. *: point of attachment. X1 = CC(C)CCC[C@@H](C)[C@H]1CC[C@H]2[C@@H]3CC=C4C[C@@H](OC(=O)C*)CC[C@]4(C)[C@H]3CC[C@]12C
# Test system: diet-induced obese mice
# Experiment: Feeding study in diet-induced obese mice (food intake, body weight)
# Type: in vivo
# Details: 10 mg/kg
# Excerpt: NMUR1 knockout (Nmur1−/−) mice were generated using standard homologous recombination techniques. Nmur1 mice were subsequently transferred to Taconic Farms where they were either maintained on a 75% C57BL/6×25% 129S6/SvEv mixed genetic background or backcrossed six generations to C57BL/6. NMUR2 knockout (Nmur2−/−) mice were licensed from Deltagen Inc., San Mateo, Calif. and subsequently transferred to Taconic Farms where they were either maintained on a 75% C57BL/6×25% 129/OlaHsd mixed genetic background or backcrossed for seven generations to C57BL/6. NMUR1 and NMUR2 double knockout (Nmur1&2−/−) mice were generated by crossing N6 Nmur1−/− mice to N7 Nmur2−/− mice. Mice were individually housed in Tecniplast cages in a conventional SPF facility. Mice were initially maintained on a regular chow diet and then early in their life were switched to a high fat diet (D12492: 60% kcal from fat; Research Diets, Inc., New Brunswick, N.J.) with ad libitum access to water in a 12-hour light/12-hour dark cycle.
# Ad libitum fed male diet-induced obese mice were weighed and dosed either i.p. or s.c. about 30 minutes prior to the onset of the dark phase of the light cycle and provided with a preweighed aliquot of high fat diet D12492 which was then weighed 2 hours and 18 hours (day 1), 42 hours (day 2), 66 hours (day 3), and 90 hours (day 4) after the onset of the initial dark phase. Mice were weighed at the 18, 42, 66 and 90 hour time points.
smiles,measurement,setting,value
CC(=O)N[C@@H](CSCC(=O)O[C@H]1CC[C@@]2(C)C(=CC[C@H]3[C@@H]4CC[C@H]([C@H](C)CCCC(C)C)[C@@]4(C)CC[C@@H]32)C1)C(=O)NCC(=O)N[C@@H](Cc1ccc(O)cc1)C(=O)N[C@@H](Cc1ccccc1)C(=O)N[C@@H](CC(C)C)C(=O)N[C@@H](Cc1ccccc1)C(=O)N[C@@H](CCCNC(=N)N)C(=O)N1CCC[C@H]1C(=O)N[C@@H](CCCNC(=N)N)C(=O)N[C@@H](CC(N)=O)C(N)=O [NMU11] (Ac-C(X1)GYFLFRPRN-NH2),Body weight (BW) change (in grams) {relative to vehicle} Day 1,Day 1,−1.8 grams
same,% Food intake (FI) reductions Day 1,"Day 1, based on vehicle responses",54%
same,Body weight (BW) change (in grams) {relative to vehicle} Day 2,Day 2,−0.7 grams
same,% Food intake (FI) reductions Day 2,"Day 2, based on vehicle responses",30%

# Source: US20100075907A1, “NEUROMEDIN U RECEPTOR AGONISTS AND USES THEREOF” (priority 2006, published 2010)
